These are yes or no findings as the source states them, for the method shown. In cells and extracts the contact can be indirect. A result given as binding can be weak or reduced; the word gives no strength. Sequences can lack the tags named with a protein.
What was measured:
[1] = target: nLUC-TLP18.3 (Arabidopsis thaliana) (UniProt Q9ZVL6); test: split reporter; split-luciferase complementation in intact N. benthamiana leaves; high light (600 µmol m-2 s-1) for 3 h at 2 dpi, 1 mM d-luciferin, CCD imaging; empty nLUC and cLUC as negative controls
[2] = target: cYFP-TLP18.3 (Arabidopsis thaliana) (UniProt Q9ZVL6); test: split reporter; BiFC with split YFP in mesophyll cells of tobacco leaves, confocal microscopy; empty vector combinations as negative controls

Protein sequences, listed by entry. Tags and fused reporters are not part of them. Lines headed by an entry give the natural chain unless they say otherwise; changes in a name come on top.
UniProt Q9ZVL6: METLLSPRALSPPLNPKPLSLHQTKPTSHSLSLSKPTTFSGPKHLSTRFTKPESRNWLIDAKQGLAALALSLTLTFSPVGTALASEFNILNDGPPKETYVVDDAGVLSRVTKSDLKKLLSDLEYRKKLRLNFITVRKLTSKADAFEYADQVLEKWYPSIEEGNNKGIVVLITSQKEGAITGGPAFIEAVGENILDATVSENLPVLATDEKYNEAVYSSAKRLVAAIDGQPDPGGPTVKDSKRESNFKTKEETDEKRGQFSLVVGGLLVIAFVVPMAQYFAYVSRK

binding [1]	binding [2]	Binder
binds	–	cLUC-PsbS (protein, UniProt Q9XF91 60-265) AAPKKVEKPKSKVEDGIFGTSGGIGFTKANELFVGRVAMIGFAASLLGEALTGKGILAQLNLETGIPIYEAEPLLLFFILFTLLGAIGALGDRGKFVDDPPTGLEKAVIPPGKNVRSALGLKEQGPLFGFTKANELFVGRLAQLGIAFSLIGEIITGKGALAQLNIETGIPIQDIEPLVLLNVAFFFFAAINPGNGKFITDDGEES
–	binds	PsbS-nYFP (protein, UniProt Q9XF91 60-265) AAPKKVEKPKSKVEDGIFGTSGGIGFTKANELFVGRVAMIGFAASLLGEALTGKGILAQLNLETGIPIYEAEPLLLFFILFTLLGAIGALGDRGKFVDDPPTGLEKAVIPPGKNVRSALGLKEQGPLFGFTKANELFVGRLAQLGIAFSLIGEIITGKGALAQLNIETGIPIQDIEPLVLLNVAFFFFAAINPGNGKFITDDGEES

— PMC12864446
